Source: publication PMC7933275
Read-outs that look alike come from different tables or passages of the source. Results are given in words; binding and its absence hold for the method and conditions named. In cells and extracts the contact can be indirect. Some entries that bind do so weakly or less than the wild type. Tags and fused reporters may be left off the sequences shown.

Sequences of proteins named here, by UniProt entry; tags and fusion partners are left off.
UniProt P63208: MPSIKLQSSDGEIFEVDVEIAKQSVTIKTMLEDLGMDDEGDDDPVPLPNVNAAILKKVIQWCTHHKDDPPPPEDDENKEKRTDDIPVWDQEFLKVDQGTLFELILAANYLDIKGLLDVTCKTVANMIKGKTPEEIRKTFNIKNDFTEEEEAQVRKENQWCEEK
UniProt P35222: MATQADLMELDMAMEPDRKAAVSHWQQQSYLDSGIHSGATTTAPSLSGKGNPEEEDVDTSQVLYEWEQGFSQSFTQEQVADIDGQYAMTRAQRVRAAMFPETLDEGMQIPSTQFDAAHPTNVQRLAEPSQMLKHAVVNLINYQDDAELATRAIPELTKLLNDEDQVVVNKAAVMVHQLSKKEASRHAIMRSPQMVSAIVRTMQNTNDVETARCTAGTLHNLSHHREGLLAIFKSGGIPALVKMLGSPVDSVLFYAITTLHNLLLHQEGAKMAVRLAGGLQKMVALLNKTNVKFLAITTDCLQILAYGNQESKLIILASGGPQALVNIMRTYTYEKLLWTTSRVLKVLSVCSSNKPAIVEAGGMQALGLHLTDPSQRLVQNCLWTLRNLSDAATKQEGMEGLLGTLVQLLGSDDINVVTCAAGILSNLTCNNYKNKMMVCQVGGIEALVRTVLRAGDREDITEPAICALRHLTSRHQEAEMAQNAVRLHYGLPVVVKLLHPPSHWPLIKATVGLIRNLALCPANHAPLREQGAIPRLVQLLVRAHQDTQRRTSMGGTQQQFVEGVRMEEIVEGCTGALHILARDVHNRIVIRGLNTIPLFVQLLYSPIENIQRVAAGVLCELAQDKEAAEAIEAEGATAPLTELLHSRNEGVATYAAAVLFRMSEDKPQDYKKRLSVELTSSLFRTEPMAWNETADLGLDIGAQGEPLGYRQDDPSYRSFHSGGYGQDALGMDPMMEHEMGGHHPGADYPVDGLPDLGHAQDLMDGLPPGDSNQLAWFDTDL

Key:
[1] = biological target: T1, myc-F-box only protein 31 (FBXO31) (UniProt Q5XUX0); experiment: co-IP; hBMSCs cotransfected with FLAG-β-catenin and myc-FBXO31 or myc-FBXO31ΔF for 48 h, 10 μM MG132 for 6 h; nondenaturing lysis buffer (20 mM Tris-HCl pH 8.0, 137 mM NaCl, 0.5% Nonidet P40, 2 mM EDTA); IP with anti-myc antibodies overnight at 4 °C, protein A/G agarose beads, immunoblot
T1 sequence: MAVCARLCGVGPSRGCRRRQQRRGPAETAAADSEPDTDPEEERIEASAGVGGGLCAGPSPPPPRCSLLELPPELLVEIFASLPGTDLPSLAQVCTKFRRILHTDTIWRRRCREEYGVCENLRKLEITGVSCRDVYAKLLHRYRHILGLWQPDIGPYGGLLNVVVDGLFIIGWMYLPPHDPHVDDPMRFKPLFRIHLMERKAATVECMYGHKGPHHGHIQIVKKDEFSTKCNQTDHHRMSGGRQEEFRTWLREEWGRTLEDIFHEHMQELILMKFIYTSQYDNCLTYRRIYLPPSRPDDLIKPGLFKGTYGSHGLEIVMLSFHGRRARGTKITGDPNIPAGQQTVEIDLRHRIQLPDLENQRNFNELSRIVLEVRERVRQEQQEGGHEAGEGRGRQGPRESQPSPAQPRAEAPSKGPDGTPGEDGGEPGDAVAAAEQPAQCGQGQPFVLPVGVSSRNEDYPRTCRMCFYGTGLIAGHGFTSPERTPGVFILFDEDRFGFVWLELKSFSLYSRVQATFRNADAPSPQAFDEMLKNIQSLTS

[2] = biological target: T1, myc-F-box only protein 31 (FBXO31); experiment: as above; remark: listed apart in the source

Skp1, endogenous in hBMSCs (from UniProt P63208 1-163)
binding [1]: binds

FLAG-β-catenin (from UniProt P35222 1-781)
binding [1]: binds

B1: ubiquitin-specific protease 53 (USP53), in hBMSCs of the anti-myc co-IP (protein, UniProt Q70EK8 1-1073)
chain: MAWVKFLRKPGGNLGKVYQPGSMLSLAPTKGLLNEPGQNSCFLNSAVQVLWQLDIFRRSLRVLTGHVCQGDACIFCALKTIFAQFQHSREKALPSDNIRHALAESFKDEQRFQLGLMDDAAECFENMLERIHFHIVPSRDADMCTSKSCITHQKFAMTLYEQCVCRSCGASSDPLPFTEFVRYISTTALCNEVERMLERHERFKPEMFAELLQAANTTDDYRKCPSNCGQKIKIRRVLMNCPEIVTIGLVWDSEHSDLTEAVVRNLATHLYLPGLFYRVTDENAKNSELNLVGMICYTSQHYCAFAFHTKSSKWVFFDDANVKEIGTRWKDVVSKCIRCHFQPLLLFYANPDGTAVSTEDALRQVISWSHYKSVAENMGCEKPVIHKSDNLKENGFGDQAKQRENQKFPTDNISSSNRSHSHTGVGKGPAKLSHIDQREKIKDISRECALKAIEQKNLLSSQRKDLEKGQRKDLGRHRDLVDEDLSHFQSGSPPAPNGFKQHGNPHLYHSQGKGSYKHDRVVPQSRASAQIISSSKSQILAPGEKITGKVKSDNGTGYDTDSSQDSRDRGNSCDSSSKSRNRGWKPMRETLNVDSIFSESEKRQHSPRHKPNISNKPKSSKDPSFSNWPKENPKQKGLMTIYEDEMKQEIGSRSSLESNGKGAEKNKGLVEGKVHGDNWQMQRTESGYESSDHISNGSTNLDSPVIDGNGTVMDISGVKETVCFSDQITTSNLNKERGDCTSLQSQHHLEGFRKELRNLEAGYKSHEFHPESHLQIKNHLIKRSHVHEDNGKLFPSSSLQIPKDHNAREHIHQSDEQKLEKPNECKFSEWLNIENSERTGLPFHVDNSASGKRVNSNEPSSLWSSHLRTVGLKPETAPLIQQQNIMDQCYFENSLSTECIIRSASRSDGCQMPKLFCQNLPPPLPPKKYAITSVPQSEKSESTPDVKLTEVFKATSHLPKHSLSTASEPSLEVSTHMNDERHKETFQVRECFGNTPNCPSSSSTNDFQANSGAIDAFCQPELDSISTCPNETVSLTTYFSVDSCMTDTYRLKYHQRPKLSFPESSGFCNNSLS
binding [2]: binds
